“And” between values parts separate entries of the source, which are not always exact repeats. Equal entries are not always repeated. Among all 390,000 compounds or so, about 610 (0.16%) were called active. Inconclusive results, whose numbers are uncertain, are shown with a selection of clear calls. The call rests on the fitted dose curve; in most records, active means well fitted inhibition curve with a large enough effect; inconclusive means small, poorly fitted or top-dose-only effect, or effect the other way, or another doubt; inactive means no such curve, though single readings can be large or run the other way. A potency beside an inconclusive call is a rough fit, not a confirmed value.
assay: Nrf2 qHTS screen for inhibitors: counterscreen for cytotoxicity; conditions: A549 ARE-Fluc cells, CellTiter-Fluor viability, 18-24 h; series mostly up to 46 µM
How it was run: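 A549 ARE-Fluc cells in 5% FBS OPTI-MEM, 5000 cells/well, rested 2 h then exposed to compounds in concentration-response for 18-24 h at 37 °C. Viability by CellTiter-Fluor fluorescence (Ex 405/Em 525) after 30 min; luciferase luminescence (BugLite, 15 min, RT) read afterwards.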
Potency means the concentration at half of the fitted maximal effect.

| SMILES | Potency |
| --- | --- |
| CCC(=O)NC(c1ccco1)c1cc(Cl)c2cccnc2c1O (centres undefined) | inconclusive: 10.3 µM [falling, partial curve] |
| O=C(Nc1ccc(Cl)cc1)Nc1ccc2c(c1)N1CCN=C1S2 | inconclusive: 29.1 µM [falling, single point] |
| CCN(CC)c1cc2c(cc1F)c(=O)c(S(=O)(=O)c1ccc(OC)cc1)cn2CC | inactive |
| O=[N+]([O-])c1c(Nc2ccc(O)cc2)cc(Cl)c2nonc12 | inconclusive: 23.1 µM [falling, single point] |
| COc1cccc(Nc2ncccc2C(=O)Nc2ccccc2)c1 | inconclusive: 8.2 µM [falling, single point] |
| Brc1ccc(/C=C/C=N/Nc2nc3ccccc3s2)cc1 | inconclusive: 23.1 µM [falling, partial curve] |
| N#Cc1ccccc1Cn1cc(/C=C/[N+](=O)[O-])c2ccccc21 | active: 23.1 µM |
| Cc1ccc(NC(=O)CSc2nnc(-c3ccco3)c(-c3ccco3)n2)cc1 | inconclusive: 7.31 µM [falling, partial curve, poor fit] |
| CCOC(=O)N1CCN(c2c(F)cc3[nH]c(=S)[nH]c3c2Br)CC1 | inconclusive: 13 µM [falling, partial curve, poor fit] |
| O=C(NCCc1ccccc1)c1nnc(Cc2cccc(F)c2)o1 | inconclusive: 7.31 µM [activator, partial curve, poor fit] |
| O=C(COC(=O)C1CCC1)Nc1ccc(Oc2ccccc2)cc1 | inconclusive: 6.51 µM [falling, single point] |
| Cc1ccc2oc(=O)c3cnn(CC(=O)N(CCN(C)C)Cc4ccco4)c3c2c1 | inconclusive: 0.58 µM [activator, full curve] |
| c1ccc(-c2nnc(CSc3ccc4c(c3)OCCO4)o2)cc1 | inconclusive: 11.6 µM [activator, partial curve, poor fit] |
| O=C(CCl)Nc1cccc(-c2cnc3ccccc3n2)c1 | inactive |
| NC(=O)CC(NC(=O)c1ccccc1)c1ccc(N2CCC(Cc3ccccc3)CC2)c([N+](=O)[O-])c1 (centres undefined) | inconclusive: 20.6 µM [falling, partial curve, poor fit] |
| COc1cc(C2/C(=C(\O)c3ccc4c(c3)CC(C)O4)C(=O)C(=O)N2CCN2CCOCC2)cc(OC)c1OC (centres undefined) | inconclusive: 32.6 µM [activator, partial curve, poor fit] |
| CC(/C=C(\NC(=O)c1ccccc1)C(=O)N=Nc1c(O)[nH]c2ccc(C)cc12)=C\c1ccccc1 | inconclusive: 18.4 µM [falling, partial curve, poor fit] |
| CCN1CCN(c2cc(N3CCc4ccccc4C3)c(F)cc2[N+](=O)[O-])CC1 | inconclusive: 18.4 µM [falling, single point] |
| COC(=O)c1c(C)oc2ccc(N(C(=O)c3ccncc3)S(=O)(=O)c3ccccc3)cc12 | inconclusive: 18.4 µM [falling, partial curve, poor fit] |
| CCOC(=O)c1c(C)[nH]c(C)c1C(=O)CSc1nc2ccccc2c(=O)n1-c1ccc(F)cc1 | inconclusive: 29.1 µM [falling, single point] |
| COc1ccc(C2CC(c3ccccc3)Oc3c(C)ccc(C)c32)cc1 (centres undefined) | inactive and inconclusive: 7.31 µM [activator, partial curve, poor fit] |
| COCCNC(=S)Nc1ccc2nc(N3CCN(C)CC3)cc(C)c2c1 | inconclusive: 2.31 µM [activator, partial curve, poor fit] |

| SMILES | Potency |
| --- | --- |
| O=C(CSc1nc2ccccc2nc1Cc1ccccc1)NCc1ccccc1Cl | inactive |
| COCCOC(=O)C1=C(C)NC(=O)NC1c1cccc2ccccc12 (centres undefined) | inactive |
| CCN1CCN(C(=S)c2ccc(Cl)c(Cl)c2)CC1 | inconclusive: 23.1 µM [activator, partial curve, poor fit] |
| CCOc1ccc(CNCc2c(C(=O)O)n(Cc3ccccc3F)c3cc(OC)ccc23)cc1 | inconclusive: 25.9 µM [falling, partial curve, poor fit] |
| O=C(NNC(=O)C(c1ccccc1)c1ccccc1)c1ccccn1 | inconclusive: 20.6 µM [falling, partial curve] |
| CCc1nnc(SCc2ccc([N+](=O)[O-])cc2)nc1CC | inconclusive: 23.1 µM [activator, partial curve, poor fit] |
| CCCC(=O)N1CCN(c2ccc(NC(=O)c3cccs3)cc2)CC1 | inactive |
| CCN(CC)c1cc(C)c2cc(NC(=O)c3cccc(OC)c3)ccc2n1 | inconclusive: 29.1 µM [falling, single point] |
| Cc1noc(C(=O)Nc2sc3c(c2C#N)CCC3)c1Cl | inconclusive: 23.1 µM [falling, single point] |
| COc1ccc(-c2cn3cc(C)ccc3n2)cc1OC | inactive |
| Cc1nc(C)c(-c2ccc(SCC(=O)Nc3ccc(Br)cc3)nn2)s1 | inconclusive: 16.4 µM [falling, partial curve, poor fit] |
| COc1ccccc1CNC(=S)NC1CCCCC1 | inconclusive: 16.4 µM [falling, single point] |
| O=C(OCc1ccccc1)N1CCOCCOCCN(C(=O)OCc2ccccc2)CCOCCOCC1 | inconclusive: 29.1 µM [falling, single point] |
| CC(C)c1cc(NCC2CCCO2)n2c(nc3ccccc32)c1C#N (centres undefined) | inactive |
| CCOC(=O)c1ccccc1NC(=O)CSc1nc2cn(CC)nc2c(=O)n1Cc1ccc(Cl)cc1 | inconclusive: 18.4 µM [falling, partial curve, poor fit] |
| CCOC(=O)[C@H](C)N1[C@H](C)[C@H](c2ccccc2)Oc2ccc(Cl)cc2S1(=O)=O | inactive |
| O=C(COC(=O)c1cnccn1)Nc1ncc(C(F)(F)F)cc1Cl | inactive |
| COc1ccc(Nc2oc(-c3ccc(Cl)cc3)nc2C#N)cc1 | inconclusive: 16.4 µM [falling, partial curve, poor fit] |
| CCOC(=O)c1cc(-c2ccccc2)sc1NC(=O)C(C)C | inconclusive: 23.1 µM [activator, partial curve, poor fit] |
| Fc1ccc(N2CCN(C3CCC(c4ccccc4)CC3)CC2)cc1 (centres undefined) | inconclusive: 25.9 µM [falling, partial curve, poor fit] |
| O=C(O)Cc1ccc(N=Nc2c(O)c(C(=O)O)cc3ccccc23)cc1 | inconclusive: 14.6 µM [falling, partial curve, poor fit] |
| Cc1ccc2nc3c(cc(C(=O)NCC4CCCO4)c(=N)n3C(C)C)c(=O)n2c1 (centres undefined) | inconclusive: 7.31 µM [activator, partial curve] |

| SMILES | Potency |
| --- | --- |
| O=C(Nc1c(Cl)ccc2nsnc12)c1ccc([N+](=O)[O-])o1 | inactive |
| CCCC(=O)Nc1nc(C)c(-c2csc(Nc3ccc(Cl)cc3)n2)s1 | inconclusive: 16.4 µM [falling, partial curve, poor fit] |
| CSc1ccc(N=Nc2c(C)[nH]n(C)c2=O)cc1 | inconclusive: 23.1 µM [falling, partial curve, poor fit] |
| COc1cc2c3c(c1OC)C1(C=CC(=NNC(N)=O)C=C1)CC3N(C(C)=O)CC2 (centres undefined) | inconclusive: 0.731 µM [activator, full curve, poor fit] |
| Cc1c(O)c2ccccc2n(-c2ccccc2)c1=O | inactive |
| CC(NC(=O)CN1C(=O)NC(Cc2ccccc2)(Cc2ccccc2)C1=O)C12CC3CC(CC(C3)C1)C2 (centres undefined) | inconclusive: 29.1 µM [falling, single point] |
| CC1(C)CC2CC(C)(CN2c2ncnc3ccccc23)C1 (centres undefined) | inconclusive: 29.1 µM [falling, partial curve, poor fit] |
| COC(=O)c1cccc(C23CC4(C2)[C@H](CN(Cc2cccnc2)[C@@H]4c2ccccc2)C3c2ccc(C(F)(F)F)cc2)c1 (some centres undefined) | inactive |
| Cc1cc(NS(=O)(=O)c2ccc(NC(=O)c3cc4c(=O)n5ccccc5nc4s3)cc2)nc(C)n1 | inconclusive: 29.1 µM [activator, partial curve, poor fit] |
| O=[N+]([O-])c1ccc(N/N=C\c2cccn2-c2ccccc2)nc1 | inconclusive: 32.6 µM [falling, partial curve, poor fit] |
| CCN(CC)Cc1c(O)ccc2cc(-c3nc4ccccc4n3C)c(=O)oc12 | inconclusive: 20.6 µM [activator, single point] |
| O=C(c1ccc2c(c1)N(Cc1ccc(F)cc1)C(=O)c1ccccc1S2=O)N1CCC(Cc2ccccc2)CC1 (centres undefined) | inactive |
| Cc1ccc(S(=O)(=O)Nc2ccc(C(=O)N3CCN(c4ccccc4O)CC3)cc2)cc1[N+](=O)[O-] | inactive |
| COc1ccc(OC)c(NC(=O)/C=C/c2ccccc2[N+](=O)[O-])c1 | inactive |
| CCC[C@H](CN[C@@H](CNC)[C@H](C)CC)NCCc1cc(C(F)(F)F)cc(C(F)(F)F)c1 | inactive |
| Cc1[nH]n(-c2cccc3ccccc23)c(=O)c1C=Nc1ccc2[nH]c(=O)[nH]c2c1 | inactive |
| CC1(CC(=O)N/N=C/c2cc([N+](=O)[O-])c(O)cc2O)OCCO1 | inconclusive: 18.4 µM [falling, partial curve] |
| O=c1ccc2[n+]([O-])c3ccc(O)cc3oc-2c1 | inconclusive: 20.6 µM [activator, single point] |
| COc1ccccc1NC(=O)c1cccc(S(=O)(=O)N2CCCCCC2)c1 | inactive |
| CNc1ccc([N+](=O)[O-])cc1 | inconclusive: 25.9 µM [falling, partial curve, poor fit] |

3 structures already listed, sorted by number of heavy atoms, ascending.

| SMILES | Potency |
| --- | --- |
| CCc1nnc(SCc2ccc([N+](=O)[O-])cc2)nc1CC | inconclusive: 23.1 µM [activator, partial curve, poor fit] |
| COc1cc2c3c(c1OC)C1(C=CC(=NNC(N)=O)C=C1)CC3N(C(C)=O)CC2 (centres undefined) | inconclusive: 0.731 µM [activator, full curve, poor fit] |
| CC(/C=C(\NC(=O)c1ccccc1)C(=O)N=Nc1c(O)[nH]c2ccc(C)cc12)=C\c1ccccc1 | inconclusive: 18.4 µM [falling, partial curve, poor fit] |

From PubChem BioAssay AID504648 (National Center for Advancing Translational Sciences (NCATS), 2011)
